Source: PubChem BioAssay AID686938 (Drosophila RNAi Screening Center, 2013)
In all, the deposit lists about 23,000 reagents; shown is an unselected part of those with a known target gene and a result. In the full data, 75 (0.33%) were called active. 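Raw plate signals without normalisation; calls rest on plate z-scores that were not deposited; ratio present for only 364 wells.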 Reagent sequences are not shown. The record does not give: the dose of the treatment.

Aim: 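Knock-downs reducing store-operated calcium influx in Drosophila cells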 (primary screen)
Cell system: Drosophila S2R+ cells
Reagents: long dsRNA against Drosophila genes, about 0.25 µg dsRNA per well, roughly 10,000 cells
Time to read-out: 5 days of knock-down before the calcium assay
Conditions: thapsigargin (SERCA pump blocker) to empty calcium stores; entry signal taken 4 min after adding it
Read-out: 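Duplicate raw fluo-4 intensities per well from a plate reader, at rest and four minutes after thapsigargin emptied calcium stores; entry-to-rest ratio filled for only some wells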
Scale: calcium entry signal: higher = stronger calcium signal after store depletion; resting calcium signal: higher = higher resting calcium signal
Hit rule: 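Hit if the duplicate-averaged plate z-score for entry over resting signal is under −3; wells with weak total dye signal (Fmax z < −2) or more than 5 off-targets removed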
Meaning of the calls: active = strongly reduced calcium entry; inactive = no strong reduction

After knock-down of CG34331 [DRSC20679], the record shows calcium entry signal, replicate 1 (fluorescence units) = 4.79e7; calcium entry signal, replicate 2 (fluorescence units) = 4.48e7; resting calcium signal, replicate 1 (fluorescence units) = 2.48e7; resting calcium signal, replicate 2 (fluorescence units) = 2.10e7; inactive.
After knock-down of Cyp49a1 (Cytochrome P450 49a1) [DRSC06737] the results were calcium entry signal, replicate 1 (fluorescence units) = 3.89e7; calcium entry signal, replicate 2 (fluorescence units) = 4.61e7; resting calcium signal, replicate 1 (fluorescence units) = 1.83e7; resting calcium signal, replicate 2 (fluorescence units) = 1.87e7; inactive.
Against Cyp49a1 (Cytochrome P450 49a1) [DRSC07367], the entry reads calcium entry signal, replicate 1 (fluorescence units) = 3.74e7; calcium entry signal, replicate 2 (fluorescence units) = 4.03e7; resting calcium signal, replicate 1 (fluorescence units) = 1.74e7; resting calcium signal, replicate 2 (fluorescence units) = 1.72e7; inactive.
Knock-down of Sps2 (Selenophosphate synthetase 2) [DRSC03441] resulted in: calcium entry signal, replicate 1 (fluorescence units) = 3.82e7; calcium entry signal, replicate 2 (fluorescence units) = 6.54e7; resting calcium signal, replicate 1 (fluorescence units) = 1.79e7; resting calcium signal, replicate 2 (fluorescence units) = 2.71e7; inactive.
Knock-down of Cp18 (Chorion protein 18) [DRSC11120] came out at: calcium entry signal, replicate 1 (fluorescence units) = 3.15e7; calcium entry signal, replicate 2 (fluorescence units) = 4.93e7; resting calcium signal, replicate 1 (fluorescence units) = 1.56e7; resting calcium signal, replicate 2 (fluorescence units) = 2.31e7; inactive.
Silencing of BoYb [DRSC11637] gave: calcium entry signal, replicate 1 (fluorescence units) = 4.29e7; calcium entry signal, replicate 2 (fluorescence units) = 5.04e7; resting calcium signal, replicate 1 (fluorescence units) = 1.95e7; resting calcium signal, replicate 2 (fluorescence units) = 3.42e7; inactive.
Silencing of CG7691 [DRSC16287] resulted in: calcium entry signal, replicate 1 (fluorescence units) = 4.48e7; calcium entry signal, replicate 2 (fluorescence units) = 4.50e7; resting calcium signal, replicate 1 (fluorescence units) = 4.97e7; resting calcium signal, replicate 2 (fluorescence units) = 1.90e7; inactive.
With knock-down of CG13562 [DRSC04200], the record shows calcium entry signal, replicate 1 (fluorescence units) = 4.10e7; calcium entry signal, replicate 2 (fluorescence units) = 4.12e7; resting calcium signal, replicate 1 (fluorescence units) = 2.11e7; resting calcium signal, replicate 2 (fluorescence units) = 1.85e7; inactive.
Knock-down of PTP-ER (Protein tyrosine phosphatase-ERK/Enhancer of Ras1) [DRSC04636] gave: calcium entry signal, replicate 1 (fluorescence units) = 3.79e7; resting calcium signal, replicate 1 (fluorescence units) = 2.06e7; inactive.
Against PTP-ER (Protein tyrosine phosphatase-ERK/Enhancer of Ras1) [DRSC23325], the entry reads calcium entry signal, replicate 1 (fluorescence units) = 4.03e7; calcium entry signal, replicate 2 (fluorescence units) = 4.58e7; resting calcium signal, replicate 1 (fluorescence units) = 1.78e7; resting calcium signal, replicate 2 (fluorescence units) = 1.93e7; inactive.
Against mod(mdg4) (modifier of mdg4) [DRSC13474], the values are calcium entry signal, replicate 1 (fluorescence units) = 4.49e7; calcium entry signal, replicate 2 (fluorescence units) = 3.23e7; resting calcium signal, replicate 1 (fluorescence units) = 2.39e7; resting calcium signal, replicate 2 (fluorescence units) = 1.62e7; inactive.
With knock-down of mod(mdg4) (modifier of mdg4) [DRSC13475], the record shows calcium entry signal, replicate 1 (fluorescence units) = 4.34e7; calcium entry signal, replicate 2 (fluorescence units) = 3.05e7; resting calcium signal, replicate 1 (fluorescence units) = 2.43e7; resting calcium signal, replicate 2 (fluorescence units) = 1.56e7; inactive.
Against mod(mdg4) (modifier of mdg4) [DRSC13478] the deposit lists calcium entry signal, replicate 1 (fluorescence units) = 4.39e7; calcium entry signal, replicate 2 (fluorescence units) = 3.09e7; resting calcium signal, replicate 1 (fluorescence units) = 2.25e7; resting calcium signal, replicate 2 (fluorescence units) = 1.52e7; inactive.
After knock-down of mod(mdg4) (modifier of mdg4) [DRSC13479] the results were calcium entry signal, replicate 1 (fluorescence units) = 4.90e7; calcium entry signal, replicate 2 (fluorescence units) = 2.97e7; resting calcium signal, replicate 1 (fluorescence units) = 2.18e7; resting calcium signal, replicate 2 (fluorescence units) = 1.43e7; inactive.
Silencing of mod(mdg4) (modifier of mdg4) [DRSC15042] came out at: calcium entry signal, replicate 1 (fluorescence units) = 2.38e7; calcium entry signal, replicate 2 (fluorescence units) = 3.11e7; resting calcium signal, replicate 1 (fluorescence units) = 2.90e7; resting calcium signal, replicate 2 (fluorescence units) = 1.34e7; inactive.
For mod(mdg4) (modifier of mdg4) [DRSC17000] the deposit lists calcium entry signal, replicate 1 (fluorescence units) = 5.17e7; calcium entry signal, replicate 2 (fluorescence units) = 4.37e7; resting calcium signal, replicate 1 (fluorescence units) = 2.29e7; resting calcium signal, replicate 2 (fluorescence units) = 1.79e7; inactive.
After knock-down of U3-55K (U3 small nuclear riboprotein factor 55K) [DRSC05982] the results were calcium entry signal, replicate 1 (fluorescence units) = 2.61e7; calcium entry signal, replicate 2 (fluorescence units) = 2.71e7; resting calcium signal, replicate 1 (fluorescence units) = 1.54e7; resting calcium signal, replicate 2 (fluorescence units) = 1.57e7; inactive.
Depletion of CG5002 [DRSC06911] gave: calcium entry signal, replicate 1 (fluorescence units) = 3.23e7; calcium entry signal, replicate 2 (fluorescence units) = 2.60e7; resting calcium signal, replicate 1 (fluorescence units) = 1.40e7; resting calcium signal, replicate 2 (fluorescence units) = 1.29e7; inactive.
Hex-A (Hexokinase A) [DRSC18259] showed calcium entry signal, replicate 1 (fluorescence units) = 2.78e7; calcium entry signal, replicate 2 (fluorescence units) = 5.15e7; resting calcium signal, replicate 1 (fluorescence units) = 1.79e7; resting calcium signal, replicate 2 (fluorescence units) = 3.19e7; inactive.
Against CG42675 [DRSC12157] the deposit lists calcium entry signal, replicate 1 (fluorescence units) = 3.52e7; calcium entry signal, replicate 2 (fluorescence units) = 4.66e7; resting calcium signal, replicate 1 (fluorescence units) = 1.44e7; resting calcium signal, replicate 2 (fluorescence units) = 1.95e7; inactive.
Silencing of CG42675 [DRSC21868] came out at: calcium entry signal, replicate 1 (fluorescence units) = 1.79e7; calcium entry signal, replicate 2 (fluorescence units) = 2.60e7; resting calcium signal, replicate 1 (fluorescence units) = 9.85e6; resting calcium signal, replicate 2 (fluorescence units) = 1.30e7; inactive.

Entries listed so far whose gene name begins with M or m:
mod(mdg4) (modifier of mdg4) [DRSC13474]: calcium entry signal, replicate 1 (fluorescence units) = 4.49e7; calcium entry signal, replicate 2 (fluorescence units) = 3.23e7; resting calcium signal, replicate 1 (fluorescence units) = 2.39e7; resting calcium signal, replicate 2 (fluorescence units) = 1.62e7; activity call = inactive
mod(mdg4) (modifier of mdg4) [DRSC13475]: calcium entry signal, replicate 1 (fluorescence units) = 4.34e7; calcium entry signal, replicate 2 (fluorescence units) = 3.05e7; resting calcium signal, replicate 1 (fluorescence units) = 2.43e7; resting calcium signal, replicate 2 (fluorescence units) = 1.56e7; activity call = inactive
mod(mdg4) (modifier of mdg4) [DRSC13478]: calcium entry signal, replicate 1 (fluorescence units) = 4.39e7; calcium entry signal, replicate 2 (fluorescence units) = 3.09e7; resting calcium signal, replicate 1 (fluorescence units) = 2.25e7; resting calcium signal, replicate 2 (fluorescence units) = 1.52e7; activity call = inactive
mod(mdg4) (modifier of mdg4) [DRSC13479]: calcium entry signal, replicate 1 (fluorescence units) = 4.90e7; calcium entry signal, replicate 2 (fluorescence units) = 2.97e7; resting calcium signal, replicate 1 (fluorescence units) = 2.18e7; resting calcium signal, replicate 2 (fluorescence units) = 1.43e7; activity call = inactive
mod(mdg4) (modifier of mdg4) [DRSC15042]: calcium entry signal, replicate 1 (fluorescence units) = 2.38e7; calcium entry signal, replicate 2 (fluorescence units) = 3.11e7; resting calcium signal, replicate 1 (fluorescence units) = 2.90e7; resting calcium signal, replicate 2 (fluorescence units) = 1.34e7; activity call = inactive
mod(mdg4) (modifier of mdg4) [DRSC17000]: calcium entry signal, replicate 1 (fluorescence units) = 5.17e7; calcium entry signal, replicate 2 (fluorescence units) = 4.37e7; resting calcium signal, replicate 1 (fluorescence units) = 2.29e7; resting calcium signal, replicate 2 (fluorescence units) = 1.79e7; activity call = inactive
